Data taken from publication PMC10944492.

Legend:
[1] = target: T1, SFB-tagged mouse Nfatc1, full-length (mouse) (UniProt O88942); experiment: co-IP; co-IP of Yap with Nfatc1 (Supplementary Fig. 8e); constructs and cells not told in the text shown
T1 sequence: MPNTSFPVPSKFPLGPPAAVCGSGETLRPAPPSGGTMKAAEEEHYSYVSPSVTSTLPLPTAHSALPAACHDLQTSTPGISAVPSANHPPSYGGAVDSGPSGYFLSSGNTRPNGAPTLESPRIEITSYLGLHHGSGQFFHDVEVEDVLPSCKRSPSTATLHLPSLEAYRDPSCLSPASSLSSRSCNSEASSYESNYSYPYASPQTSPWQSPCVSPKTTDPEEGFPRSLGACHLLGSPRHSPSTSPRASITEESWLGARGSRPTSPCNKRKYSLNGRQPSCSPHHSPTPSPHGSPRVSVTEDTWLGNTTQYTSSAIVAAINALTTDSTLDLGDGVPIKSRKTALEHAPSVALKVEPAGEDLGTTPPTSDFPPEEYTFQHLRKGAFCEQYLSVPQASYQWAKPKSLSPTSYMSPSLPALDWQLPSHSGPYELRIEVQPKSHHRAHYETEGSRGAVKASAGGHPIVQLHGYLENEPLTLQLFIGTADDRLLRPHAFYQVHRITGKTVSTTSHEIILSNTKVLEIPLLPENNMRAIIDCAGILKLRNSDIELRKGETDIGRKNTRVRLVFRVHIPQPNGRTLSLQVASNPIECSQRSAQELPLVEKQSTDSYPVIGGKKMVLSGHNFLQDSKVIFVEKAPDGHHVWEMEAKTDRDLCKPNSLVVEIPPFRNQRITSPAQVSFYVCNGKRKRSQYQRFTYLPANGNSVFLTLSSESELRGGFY

[2] = target: MYC-tagged mouse Tead3 truncation mutant: C-terminal YAP-binding domain (mouse); experiment: co-IP; HEK293T cells co-transfected with SFB-Nfatc1 and MYC-Tead3 (full-length or truncated); pulldown with a MYC-specific antibody; blots for MYC and FLAG
[3] = target: MYC-tagged mouse Tead3 truncation mutant: TEA domain (N-terminal DBD) (mouse); experiment: as above

Question: Yap was tested. Which binding [1] did it give?
Answer: The binding was “no binding”.

B1: SFB-tagged mouse Nfatc1, full-length (protein, UniProt O88942 1-717)
chain: T1 sequence
Question: Which results are given for B1?
Answer: binding [2]: no binding; binding [3]: binds

No constants are given. Whether binding was seen depends on the method and setting. In cells and extracts the contact can be indirect. For part of these data: A result given as binding can be weak or reduced; the word gives no strength. Where a sequence is shown, tags or fusion partners need not be part of it.
